The values below come from patent US20140348745A1.

These are yes or no findings as the source states them, for the method shown. Some binding calls cover weakened binding; strength is not graded here.

The target in test [1] is T1, human CD37 antigen (human) (UniProt P11049).
T1 sequence (looked up): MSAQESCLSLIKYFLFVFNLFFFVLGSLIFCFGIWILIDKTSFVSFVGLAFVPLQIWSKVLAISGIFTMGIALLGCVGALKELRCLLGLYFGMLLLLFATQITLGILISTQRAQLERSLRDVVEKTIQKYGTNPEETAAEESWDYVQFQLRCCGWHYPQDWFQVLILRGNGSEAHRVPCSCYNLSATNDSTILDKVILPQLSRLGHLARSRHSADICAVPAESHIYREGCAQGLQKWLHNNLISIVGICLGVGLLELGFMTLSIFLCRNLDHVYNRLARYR
Nature of the test: radioligand binding to Daudi lymphoma cells.

Test [2] addresses T1, human CD37 antigen (human). Nature of the test: flow cytometry on Daudi cells.
For test [3], the target named is T1, human CD37 antigen (human). Nature of the test: cross-blocking of 125I-chHH1.3 on Ramos cells.
In test [4] the target is T1, human CD37 antigen (human). Nature of the test: cross-blocking of radiolabelled antibodies on Ramos cells.

B1: chimeric HH1 anti-CD37 antibody, human IgG1 isotype (chHH1.1) (antibody, V domains shown)
VH: EIQLQQSGPELVKPGASVKVSCKASGYSFTDYNMYWVKQSHGKSLEWIGYIDPYNGDTTYNQKFKGKATLTVDKSSSTAFIHLNSLTSEDSAVYYCARSPYGHYAMDYWGQGTSVTVSS
VL: DIVMTQSHKLLSTSVGDRVSITCKASQDVSTAVDWYQQKPGQSPKLLINWASTRHTGVPDRFTGSGSGTDYTLTISSMQAEDLALYYCRQHYSTPFTFGSGTKLEIK
On to B1, for which the binding result in test [1] and in test [2] was “binds” each time.

B2: chimeric HH1 with isotype IgG3 (chHH1.3) (antibody, V domains shown)
VH: EIQLQQSGPELVKPGASVKVSCKASGYSFTDYNMYWVKQSHGKSLEWIGYIDPYNGDTTYNQKFKGKATLTVDKSSSTAFIHLNSLTSEDSAVYYCARSPYGHYAMDYWGQGTSVTVSS
VL: DIVMTQSHKLLSTSVGDRVSITCKASQDVSTAVDWYQQKPGQSPKLLINWASTRHTGVPDRFTGSGSGTDYTLTISSMQAEDLALYYCRQHYSTPFTFGSGTKLEIKR
For the molecule B2, the binding result in test [3] and in test [4] was “binds” each time.
